Data on one substance can be found in publication PMC12238220.

Sequences of proteins named here, by UniProt entry; tags and fusion partners are left off. Residues count along the entry.
UniProt O60563: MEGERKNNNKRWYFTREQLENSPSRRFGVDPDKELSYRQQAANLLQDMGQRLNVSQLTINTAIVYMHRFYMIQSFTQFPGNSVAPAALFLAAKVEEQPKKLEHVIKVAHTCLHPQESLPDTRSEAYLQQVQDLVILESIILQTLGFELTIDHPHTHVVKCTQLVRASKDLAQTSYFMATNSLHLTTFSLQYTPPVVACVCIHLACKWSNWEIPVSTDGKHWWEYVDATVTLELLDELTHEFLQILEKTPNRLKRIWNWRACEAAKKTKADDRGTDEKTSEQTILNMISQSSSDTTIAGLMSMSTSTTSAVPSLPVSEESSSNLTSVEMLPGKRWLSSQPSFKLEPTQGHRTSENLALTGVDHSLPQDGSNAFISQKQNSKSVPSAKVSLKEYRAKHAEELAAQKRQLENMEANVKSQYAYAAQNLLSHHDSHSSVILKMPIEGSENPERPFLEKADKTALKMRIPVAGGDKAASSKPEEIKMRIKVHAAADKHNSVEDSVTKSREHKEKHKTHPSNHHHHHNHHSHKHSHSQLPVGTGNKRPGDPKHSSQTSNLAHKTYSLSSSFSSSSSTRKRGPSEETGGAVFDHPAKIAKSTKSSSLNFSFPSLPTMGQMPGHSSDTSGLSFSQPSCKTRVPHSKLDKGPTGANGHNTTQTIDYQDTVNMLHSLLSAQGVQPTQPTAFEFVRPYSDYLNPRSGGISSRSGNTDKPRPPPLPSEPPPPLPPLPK
UniProt P35869, residues 11-848: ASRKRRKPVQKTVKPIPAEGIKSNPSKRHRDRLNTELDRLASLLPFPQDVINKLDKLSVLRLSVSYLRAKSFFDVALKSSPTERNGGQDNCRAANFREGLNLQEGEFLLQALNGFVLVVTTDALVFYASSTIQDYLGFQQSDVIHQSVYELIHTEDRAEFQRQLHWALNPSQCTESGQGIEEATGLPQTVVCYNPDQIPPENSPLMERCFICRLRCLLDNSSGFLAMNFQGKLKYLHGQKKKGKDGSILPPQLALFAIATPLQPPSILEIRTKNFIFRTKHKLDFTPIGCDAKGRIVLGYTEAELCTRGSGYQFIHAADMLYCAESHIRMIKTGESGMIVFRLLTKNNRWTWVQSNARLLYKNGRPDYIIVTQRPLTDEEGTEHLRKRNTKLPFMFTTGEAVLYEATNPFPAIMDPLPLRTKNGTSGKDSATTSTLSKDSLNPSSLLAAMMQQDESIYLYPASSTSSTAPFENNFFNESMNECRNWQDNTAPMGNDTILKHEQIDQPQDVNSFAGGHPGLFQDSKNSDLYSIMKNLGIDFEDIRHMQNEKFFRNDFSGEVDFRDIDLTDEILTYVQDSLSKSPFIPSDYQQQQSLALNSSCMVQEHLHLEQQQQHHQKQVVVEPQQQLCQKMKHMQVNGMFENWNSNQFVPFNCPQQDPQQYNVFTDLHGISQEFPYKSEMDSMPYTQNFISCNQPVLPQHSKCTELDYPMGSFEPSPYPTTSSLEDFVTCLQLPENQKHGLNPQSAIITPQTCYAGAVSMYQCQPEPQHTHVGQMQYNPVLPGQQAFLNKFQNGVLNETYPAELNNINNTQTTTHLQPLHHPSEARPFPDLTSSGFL

The target of this assay is cyclin T1 (human (endogenous in HepG2)) (UniProt O60563). Nature of the assay: co-IP; lysate of HepG2 cells infected with HSV-1 (MOI=10), collected after 6 h; antibodies against Cyclin T1, AhR, RNA Pol II or IgG (25 ug/ml) on Protein A+G magnetic beads; Western blot for RNAP-II, AhR, cyclin T1, VP16.

No constants are given. Whether binding was seen depends on the method and setting. Binding seen in cells or lysates may run through a third protein. Some entries that bind do so weakly or less than the wild type.

In the case of “aryl hydrocarbon receptor (from UniProt P35869 11-848)”, the binding result is reported as “binds”.
